In patent US20230235075A1:
These are yes or no findings as the source states them, for the method shown. Some results given as binding are weak or reduced against the parent protein; the word gives no strength.

Chains of the proteins cited; added tags and fusions are not shown. Lines headed by an entry give the natural chain unless they say otherwise; changes in a name come on top. Residues count along the entry.
UniProt Q9NPY3, residues 22-580: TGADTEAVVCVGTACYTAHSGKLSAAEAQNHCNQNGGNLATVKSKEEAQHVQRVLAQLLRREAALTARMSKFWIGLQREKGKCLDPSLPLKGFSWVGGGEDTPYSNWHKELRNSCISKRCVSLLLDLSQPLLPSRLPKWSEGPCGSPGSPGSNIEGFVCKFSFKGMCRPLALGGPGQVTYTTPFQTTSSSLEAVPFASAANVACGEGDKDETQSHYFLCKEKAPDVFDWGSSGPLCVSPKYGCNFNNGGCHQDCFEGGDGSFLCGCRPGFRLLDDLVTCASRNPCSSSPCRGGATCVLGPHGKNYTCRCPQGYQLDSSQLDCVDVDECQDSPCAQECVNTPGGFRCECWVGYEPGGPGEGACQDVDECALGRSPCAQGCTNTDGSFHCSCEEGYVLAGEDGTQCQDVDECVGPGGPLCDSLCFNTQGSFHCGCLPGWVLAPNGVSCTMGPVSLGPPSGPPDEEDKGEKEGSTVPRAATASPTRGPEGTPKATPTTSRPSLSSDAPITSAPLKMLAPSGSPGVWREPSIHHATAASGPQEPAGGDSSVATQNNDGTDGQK

Target: Human CD93 recombinant protein (Sino Biological Inc, Catalog #12589-H08H) (human) (UniProt Q9NPY3)
Assay: ELISA, His-tagged human CD93 coated at 1 µg/mL, anti-mouse Fc HRP

binding: binds
B1: mouse MMRN2-mFc (Fc fusion, UniProt A6H6E2 23-943, looked up, not shown: a dimerising Fc or GST)
chain: QDPGTKFSHLNRPGMPEGWRLGAEDTSRDPIRRNWCPYQKSRLVTFVAACKTEKFLVHSQQPCPQGAPDCQGVRVMYRVAQKPVYQVQQKVLISVDWRCCPGFQGPDCQDHNPTANPEPTEPSGKLQETWDSMDGFELGHPVPEFNEIKVPQEQQENLLQNLQNDAQSVEDGFPGSWEAPPSNLTDEMTEANLTEFEFPGRTSEHLLQPHIDAFLKAHFSPIWKNFNDSLHSLSQAIRNLSLDVEANHQAIKMIQEGTVARADFQELGAKFEAKVQQNSQRLGQLWQDVEDQLHAQRRSVHHALSDVQAEVSTKLKQLVKAQELPGANGSLVMASAAAAARPEPESLQARLGQLQRNLSALHMVTSQREEELQSTLKNMDSVLKQHAEEIKELYSESDETFDQISKVERQVEELLVNHTGLRELRVILMEKSLIMEENKEEIERQLLELNLTLQHLHAGHADLIKYVKDCNCQRVNSDVDVAPEGHRDVMHTLEETQVSLDEQHQLDGSSLQALQSTVDAMSSAMDAYRGEGERARAERARIRSQLRALDHAVEALKTAANGTRKEIRLLHGSFTALLEDALRHQAVLAALFGEEMIDEMSEEAPRPLPLDYEQIRLALQDAASGLQEQAIGWEDLATRVEALEKAAGGFVEQHPQLAEGLEPSHDSGREEEAMTLAELEQEIRRLSSDVKQIGQCCEASWAASLNSSLEDLHSMLLDTQHGLRQHRQLFHNLFQNFQGLVASNISLDLGKLQAMLSKKDKKQPRGPGESRKRDKKQVVMSTDAHAKGLELWETGSPVAFYAGSSEGATALQMVKFNTTSINVGSSYFPEHGYFRAPKRGVYLFAVSITFGPGPGMGQLVFEGHHRVPVYSTEQRGGSTATTFAMVELQKGERAWFELIQGSATKGSQPGTAFGGFLMFKT
